Paper PMC6715699
Results are given in words; binding and its absence hold for the method and conditions named. Binding seen in cells or lysates may run through a third protein. A result given as binding can be weak or reduced; the word gives no strength.

Protein sequences, listed by entry. Tags and fused reporters are not part of them. Lines headed by an entry give the natural chain unless they say otherwise; changes in a name come on top.
UniProt Q06330: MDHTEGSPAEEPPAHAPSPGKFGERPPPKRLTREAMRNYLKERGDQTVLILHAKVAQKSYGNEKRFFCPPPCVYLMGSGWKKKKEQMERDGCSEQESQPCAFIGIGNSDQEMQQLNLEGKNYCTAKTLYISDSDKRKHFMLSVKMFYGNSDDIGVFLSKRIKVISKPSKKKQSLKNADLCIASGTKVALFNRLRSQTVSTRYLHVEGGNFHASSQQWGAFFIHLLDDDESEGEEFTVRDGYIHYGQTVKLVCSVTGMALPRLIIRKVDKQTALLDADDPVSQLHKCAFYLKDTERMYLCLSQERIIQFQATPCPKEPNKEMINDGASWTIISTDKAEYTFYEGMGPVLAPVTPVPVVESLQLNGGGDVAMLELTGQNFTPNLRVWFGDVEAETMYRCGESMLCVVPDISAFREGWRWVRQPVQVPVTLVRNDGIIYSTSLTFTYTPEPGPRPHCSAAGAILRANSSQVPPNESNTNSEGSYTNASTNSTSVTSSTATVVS

Target: FLAG-tagged CSL V237R (human) (UniProt Q06330)
Assay: co-IP; HEK293T cells expressing FLAG-tagged CSL FL, BTD or point mutants plus/minus FL UPF1 or FL Ku70; anti-FLAG M2 magnetic beads, immunoblotting

B1: UPF1 in HEK293T cells (protein, UniProt Q92900 1-1129)
chain: MSVEAYGPSSQTLTFLDTEEAELLGADTQGSEFEFTDFTLPSQTQTPPGGPGGPGGGGAGGPGGAGAGAAAGQLDAQVGPEGILQNGAVDDSVAKTSQLLAELNFEEDEEDTYYTKDLPIHACSYCGIHDPACVVYCNTSKKWFCNGRGNTSGSHIVNHLVRAKCKEVTLHKDGPLGETVLECYNCGCRNVFLLGFIPAKADSVVVLLCRQPCASQSSLKDINWDSSQWQPLIQDRCFLSWLVKIPSEQEQLRARQITAQQINKLEELWKENPSATLEDLEKPGVDEEPQHVLLRYEDAYQYQNIFGPLVKLEADYDKKLKESQTQDNITVRWDLGLNKKRIAYFTLPKTDSGNEDLVIIWLRDMRLMQGDEICLRYKGDLAPLWKGIGHVIKVPDNYGDEIAIELRSSVGAPVEVTHNFQVDFVWKSTSFDRMQSALKTFAVDETSVSGYIYHKLLGHEVEDVIIKCQLPKRFTAQGLPDLNHSQVYAVKTVLQRPLSLIQGPPGTGKTVTSATIVYHLARQGNGPVLVCAPSNIAVDQLTEKIHQTGLKVVRLCAKSREAIDSPVSFLALHNQIRNMDSMPELQKLQQLKDETGELSSADEKRYRALKRTAERELLMNADVICCTCVGAGDPRLAKMQFRSILIDESTQATEPECMVPVVLGAKQLILVGDHCQLGPVVMCKKAAKAGLSQSLFERLVVLGIRPIRLQVQYRMHPALSAFPSNIFYEGSLQNGVTAADRVKKGFDFQWPQPDKPMFFYVTQGQEEIASSGTSYLNRTEAANVEKITTKLLKAGAKPDQIGIITPYEGQRSYLVQYMQFSGSLHTKLYQEVEIASVDAFQGREKDFIILSCVRANEHQGIGFLNDPRRLNVALTRARYGVIIVGNPKALSKQPLWNHLLNYYKEQKVLVEGPLNNLRESLMQFSKPRKLVNTINPGARFMTTAMYDAREAIIPGSVYDRSSQGRPSSMYFQTHDQIGMISAGPSHVAAMNIPIPFNLVMPPMPPPGYFGQANGPAAGRGTPKGKTGRGGRQKNRFGLPGPSQTNLPNSQASQDVASQPFSQGALTQGYISMSQPSQMSQPGLSQPELSQDSYLGDEFKSQIDVALSQDSTYQGERAYQHGGVTGLSQY
With B1 the binding was “binds”.
